Assay results published in PMC12849997.
Results are given in words; binding and its absence hold for the method and conditions named. In cells and extracts the contact can be indirect. Here binding means that the protein was enriched with, or labelled near, the bait; the list need not be complete. Where a sequence is shown, tags or fusion partners need not be part of it.

Sequences of proteins named here, by UniProt entry; tags and fusion partners are left off. Residues count along the entry.
UniProt P15941, residues 24-1255: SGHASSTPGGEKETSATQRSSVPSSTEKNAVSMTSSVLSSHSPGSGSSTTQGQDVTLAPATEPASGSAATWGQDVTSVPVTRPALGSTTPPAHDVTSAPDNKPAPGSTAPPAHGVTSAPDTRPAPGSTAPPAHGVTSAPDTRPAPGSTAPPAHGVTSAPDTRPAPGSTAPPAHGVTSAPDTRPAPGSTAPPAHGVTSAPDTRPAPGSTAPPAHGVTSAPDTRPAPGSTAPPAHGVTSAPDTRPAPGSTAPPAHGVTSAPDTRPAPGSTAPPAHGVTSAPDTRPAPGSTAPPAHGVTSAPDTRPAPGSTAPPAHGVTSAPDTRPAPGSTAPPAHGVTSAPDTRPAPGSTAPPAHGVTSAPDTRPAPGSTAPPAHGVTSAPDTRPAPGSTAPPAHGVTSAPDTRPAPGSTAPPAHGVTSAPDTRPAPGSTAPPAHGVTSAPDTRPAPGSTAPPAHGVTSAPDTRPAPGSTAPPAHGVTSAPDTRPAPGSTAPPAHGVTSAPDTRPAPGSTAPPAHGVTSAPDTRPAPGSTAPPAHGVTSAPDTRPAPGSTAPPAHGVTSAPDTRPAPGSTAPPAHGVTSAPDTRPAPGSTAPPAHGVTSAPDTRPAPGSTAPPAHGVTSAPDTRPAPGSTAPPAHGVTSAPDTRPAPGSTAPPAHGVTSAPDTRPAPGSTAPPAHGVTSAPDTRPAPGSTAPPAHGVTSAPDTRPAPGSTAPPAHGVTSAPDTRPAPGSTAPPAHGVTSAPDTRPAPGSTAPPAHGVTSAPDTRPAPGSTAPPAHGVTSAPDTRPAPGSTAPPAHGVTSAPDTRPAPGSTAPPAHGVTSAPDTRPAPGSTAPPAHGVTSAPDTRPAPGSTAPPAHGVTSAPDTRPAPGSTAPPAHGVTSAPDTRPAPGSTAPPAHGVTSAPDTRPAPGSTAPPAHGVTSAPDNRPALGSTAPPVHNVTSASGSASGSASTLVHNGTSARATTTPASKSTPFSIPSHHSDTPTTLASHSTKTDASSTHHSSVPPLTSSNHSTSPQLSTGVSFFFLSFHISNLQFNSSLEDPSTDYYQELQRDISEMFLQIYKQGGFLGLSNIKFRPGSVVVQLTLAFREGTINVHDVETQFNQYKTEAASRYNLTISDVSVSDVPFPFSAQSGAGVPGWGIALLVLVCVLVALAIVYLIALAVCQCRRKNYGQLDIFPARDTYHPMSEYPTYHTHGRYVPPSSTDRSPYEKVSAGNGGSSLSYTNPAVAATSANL

Molecular target: T1, His‐tagged CDC37 (His‐CDC37) (human) (UniProt Q16543)
T1 sequence: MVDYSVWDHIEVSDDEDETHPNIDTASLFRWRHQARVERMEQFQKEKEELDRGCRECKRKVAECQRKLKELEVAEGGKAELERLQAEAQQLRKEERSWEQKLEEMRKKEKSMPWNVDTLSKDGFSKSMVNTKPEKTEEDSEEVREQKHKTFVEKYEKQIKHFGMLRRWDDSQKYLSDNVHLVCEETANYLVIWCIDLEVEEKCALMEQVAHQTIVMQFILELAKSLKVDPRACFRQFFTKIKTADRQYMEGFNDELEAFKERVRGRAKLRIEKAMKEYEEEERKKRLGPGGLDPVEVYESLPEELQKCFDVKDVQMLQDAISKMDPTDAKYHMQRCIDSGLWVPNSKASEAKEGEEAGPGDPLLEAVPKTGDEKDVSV
Test: affinity purification with mass spectrometry; anti‐His immunoprecipitate of DCs treated with EVs of His‐CDC37‐overexpressing SKBR3 cells and pulsed with tumor lysates; LC-MS/MS

- binding: binds
Substance: MUC1 of tumor lysates (from UniProt P15941 24-1255)
